Source: article PMC4074974
No constants are given. Whether binding was seen depends on the method and setting. Binding seen in cells or lysates may run through a third protein. Tags and fused reporters may be left off the sequences shown.

Target: N3-SCML2A WT (FLAG-HA-Twin-Strep-tagged SCML2A) (human), Q9UQR0
Experiment: pull-down; pull-down of epitope-tagged SCML2 from induced 293T-REx; input, flow-through and pull-down blotted for untagged SCML2
Conditions: remark: other sources report otherwise

B1: SCML2 (endogenous, untagged; isoforms not told apart), Q9UQR0 1-700 (protein)
chain: MGQTVNEDSMDVKKENQEKTPQSSTSSVQRDDFHWEEYLKETGSISAPSECFRQSQIPPVNDFKVGMKLEARDPRNATSVCIATVIGITGARLRLRLDGSDNRNDFWRLVDSPDIQPVGTCEKEGDLLQPPLGYQMNTSSWPMFLLKTLNGSEMASATLFKKEPPKPPLNNFKVGMKLEAIDKKNPYLICPATIGDVKGDEVHITFDGWSGAFDYWCKYDSRDIFPAGWCRLTGDVLQPPGTSVPIVKNIAKTESSPSEASQHSMQSPQKTTLILPTQQVRRSSRIKPPGPTAVPKRSSSVKNITPRKKGPNSGKKEKPLPVICSTSAASLKSLTRDRGMLYKDVASGPCKIVMSTVCVYVNKHGNFGPHLDPKRIQQLPDHFGPGPVNVVLRRIVQACVDCALETKTVFGYLKPDNRGGEVITASFDGETHSIQLPPVNSASFALRFLENFCHSLQCDNLLSSQPFSSSRGHTHSSAEHDKNQSAKEDVTERQSTKRSPQQTVPYVVPLSPKLPKTKEYASEGEPLFAGGSAIPKEENLSEDSKSSSLNSGNYLNPACRNPMYIHTSVSQDFSRSVPGTTSSPLVGDISPKSSPHEVKFQMQRKSEAPSYIAVPDPSVLKQGFSKDPSTWSVDEVIQFMKHTDPQISGPLADLFRQHEIDGKALFLLKSDVMMKYMGLKLGPALKLCYYIEKLKEGKYS
  binding: no binding
